US20180140679A1, “MODULATION OF AXL RECEPTOR ACTIVITY IN COMBINATION WITH CYTOREDUCTIVE THERAPY” (THE BOARD OF TRUSTEES OF THE LELAND STANFORD JUNIOR …, priority 2016, published 2018)
Changes are numbered by the printed parent chain. Names and notes keep the numbering of the source. No constants are given. Whether binding was seen depends on the method and setting. Some entries that bind do so weakly or less than the wild type. Blank lines part the entries; values can stand above or below the binder they belong to.

Molecular target: T1, mouse Gas6 (mouse, UniProt Q61592 115-674, limits assumed)
T1 construct: Recombinant in KinExA (detected through a 6xHIS tag); also called mGas6
T1 sequence (looked up): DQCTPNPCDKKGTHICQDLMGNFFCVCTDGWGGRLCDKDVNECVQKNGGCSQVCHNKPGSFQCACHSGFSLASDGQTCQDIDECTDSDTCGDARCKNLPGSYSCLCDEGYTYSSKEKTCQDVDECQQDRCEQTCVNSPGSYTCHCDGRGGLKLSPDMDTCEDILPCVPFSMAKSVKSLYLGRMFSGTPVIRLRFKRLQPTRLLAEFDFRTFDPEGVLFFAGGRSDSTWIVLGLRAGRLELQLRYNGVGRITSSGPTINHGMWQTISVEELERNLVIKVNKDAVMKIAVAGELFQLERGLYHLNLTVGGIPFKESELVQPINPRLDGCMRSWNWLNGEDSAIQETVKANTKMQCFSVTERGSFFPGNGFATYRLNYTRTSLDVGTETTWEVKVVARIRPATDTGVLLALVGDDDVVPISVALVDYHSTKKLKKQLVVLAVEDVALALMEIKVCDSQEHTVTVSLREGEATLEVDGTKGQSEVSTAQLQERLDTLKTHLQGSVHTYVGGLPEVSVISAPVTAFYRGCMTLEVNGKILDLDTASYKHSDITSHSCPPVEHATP
Assay: KinExA

- binding: binds
B1: MYD1-Fc (Fc fusion)
chain: APRGTQAEESPFVSNPGNITGARGLTGTLRCQLQVQGEPPEVHWLRDGQILELADSTQTQVPLGEDEQGDWIVASQLRITSLQLSDTGQYQCLVFLGHQTFVSQPGYVRLEGLPYFLEEPEDRTVAANTPFNLSCQAQGPPEPVDLLWLQDAVPLATAPGHGPQRSLHVPGLNKTSSFSCEAHNAKGVTTSRTATITVLPQQPRNLHLVSRQPTELEVAWTPGLSGIYPLTHCTLQAVLSNDGMGIQAGEPDPPEEPLTSQASVPPHQLRLGSLHPHTPYHIRVACTSSQGPSSWTHWLPVETPEGVPLGPPENISATRNGSQAFVHWQEPRAPLQGTLLGYRLAYQGQDTPEVLMDIGLRQEVTLELQGDGSVSNLTVCVAAYTAAGDGPWSLPVPLEAWRPGQAQPVHQLVKEPSTPAFS
notes: Dimeric Fc fusion made in HEK293; MYD1 mutations deduced as MYD1-72 minus A72V; not shown: Fc domain

- binding: binds
B2: MYD1-72 Fc (Fc fusion)
chain: B1 chain with A54V
notes: Dimeric Fc fusion made in HEK293; also called MYD-72 Fc; second generation Axl decoy receptor; not shown: Fc domain
